# From the supplement of paper PMC12819154, “High-throughput peptide-centric local stability assay extends protein–ligand identification to membrane proteins, tissues and bacteria” (Nature Structural & Molecular Biology, 2025)
# This is one part of the list. Most entries show no effect beyond the scatter of the controls.
# Compound: CN[C@@H]1C[C@H]2O[C@@](C)([C@@H]1OC)n1c3ccccc3c3c4c(c5c6ccccc6n2c5c31)C(=O)NC4 [staurosporine]
# Experiment: log2 fold change of tryptic peptide abundance, ligand vs vehicle (limited proteolysis) (log2 ratio); higher = more trypsin-susceptible (destabilized)
# Details: ligand concentration: 20 uM; sample: mouse liver crude lysate; replicate design: treated separately
row,Target,log2 fold change
1,"UniProt Q9D6H5 (peptide sequence: EIFLPATPSYK, peptide start residue: 329)",0.0628
2,"UniProt Q9D404 (peptide sequence: NIPCSVAAYVPR, peptide start residue: 83)",0.199
3,"UniProt Q9D168 (peptide sequence: SSPITVQTSK, peptide start residue: 126)",0.193
4,"UniProt Q9D7V2 (peptide sequence: LFTNDCIFLKK, peptide start residue: 101)",-0.183
5,"UniProt Q9D1H6 (peptide sequence: SQYPEIEEVVSKK, peptide start residue: 45)",0.139
6,"UniProt Q9D2V7 (peptide sequence: DSHITNLK, peptide start residue: 481)",-0.325
7,"UniProt Q9D7S9 (peptide sequence: YKDQIKK, peptide start residue: 45)",0.11
8,"UniProt Q9D7G4 (peptide sequence: LGLLEDADALWTHSHSQAQK, peptide start residue: 172)",0.316
9,"UniProt Q9D2D7 (peptide sequence: LSPVTPTPEGPK, peptide start residue: 373)",0.277
10,"UniProt Q9D518 (peptide sequence: DDIKFLR, peptide start residue: 446)",0.194
11,"UniProt Q9D7B1 (peptide sequence: TGISAIAVHGR, peptide start residue: 175)",0.801

# Two records picked at random from those above:
row,Target,log2 fold change
1,"UniProt Q9D6H5 (peptide sequence: EIFLPATPSYK, peptide start residue: 329)",0.0628
3,"UniProt Q9D168 (peptide sequence: SSPITVQTSK, peptide start residue: 126)",0.193
